{"source": "PubChem BioAssay AID743454 (Peter MacCallum Cancer Centre, 2014)", "aim": "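Search for knock-downs that restore vorinostat killing in resistant colon cancer cells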 (primary screen)", "system": "human HCT116-VR colon cancer cells, selected for vorinostat resistance", "knock-down reagent": "siRNA pool against human genes, 40 nM siRNA pool", "duration": "vorinostat for 24 h, read-out about 72 h after transfection", "conditions": "vorinostat at 2.5 µM final", "read-out": "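Two measures, CellTiter-Fluor viability and luminescent caspase 3/7 activity, each as fold change against same-plate mock wells, mean of duplicates, then screen-wide robust z-score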", "reading the numbers": "viability robust z-score: higher = more viable cells than screen typical; caspase robust z-score: higher = more caspase 3/7 activity than screen typical", "rule for the call": "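a knock-down is a hit when classed RV1 or RV2 for lowered viability, or CA1 or CA2 for caspase activation; those lethal without drug were dropped; hits were retested singly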", "note": "Here is a random part of about 18,000 deposited reagents. 450 of them (2.5%) were called active. 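Single biological run; no consistent viability z cut-off exists, so the class columns, not z-scores, define the calls.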"}
{"gene": "PDZD2", "viability hit class": "no change", "caspase hit class": "no change", "viability robust z-score": -0.74, "caspase robust z-score": -0.1, "Call": "inactive"}
{"gene": "TOB1", "viability hit class": "no change", "caspase hit class": "no change", "viability robust z-score": -0.02, "caspase robust z-score": 4, "Call": "inactive"}
{"gene": "LCE1E", "viability hit class": "no change", "caspase hit class": "no change", "viability robust z-score": -0.86, "caspase robust z-score": -0.48, "Call": "inactive"}
{"gene": "UBE2H", "viability hit class": "no change", "caspase hit class": "no change", "viability robust z-score": -0.63, "caspase robust z-score": 1.9, "Call": "inactive"}
{"gene": "EXOC1", "viability hit class": "no change", "caspase hit class": "no change", "viability robust z-score": -0.36, "caspase robust z-score": 1.79, "Call": "inactive"}
{"gene": "CCDC150", "viability hit class": "no change", "caspase hit class": "no change", "viability robust z-score": 0.55, "caspase robust z-score": -0.94, "Call": "inactive"}
{"gene": "SBNO2", "viability hit class": "no change", "caspase hit class": "no change", "viability robust z-score": 0.24, "caspase robust z-score": 0.16, "Call": "inactive"}
{"gene": "GNB1", "viability hit class": "no change", "caspase hit class": "no change", "viability robust z-score": 0.28, "caspase robust z-score": -0.9, "Call": "inactive"}
{"gene": "AGPAT3", "viability hit class": "no change", "caspase hit class": "no change", "viability robust z-score": 0.93, "caspase robust z-score": 0.57, "Call": "inactive"}
{"gene": "B9D1", "viability hit class": "no change", "caspase hit class": "no change", "viability robust z-score": -0.95, "caspase robust z-score": 2.75, "Call": "inactive"}
{"gene": "SPATA7", "viability hit class": "no change", "caspase hit class": "no change", "viability robust z-score": -0.22, "caspase robust z-score": 0.55, "Call": "inactive"}
{"gene": "AZI2", "viability hit class": "no change", "caspase hit class": "no change", "viability robust z-score": 0.93, "caspase robust z-score": -0.86, "Call": "inactive"}
{"gene": "DPPA3", "viability hit class": "no change", "caspase hit class": "no change", "viability robust z-score": 1.5, "caspase robust z-score": -0.68, "Call": "inactive"}
{"gene": "ACTL7B", "viability hit class": "no change", "caspase hit class": "no change", "viability robust z-score": 0.44, "caspase robust z-score": -0.32, "Call": "inactive"}
{"gene": "PRAF2", "viability hit class": "no change", "caspase hit class": "no change", "viability robust z-score": -0.37, "caspase robust z-score": 0.01, "Call": "inactive"}
{"gene": "CDH7", "viability hit class": "no change", "caspase hit class": "no change", "viability robust z-score": 0.34, "caspase robust z-score": -0.64, "Call": "inactive"}
{"gene": "NDUFA1", "viability hit class": "no change", "caspase hit class": "no change", "viability robust z-score": -2.42, "caspase robust z-score": 2.16, "Call": "inactive"}

2 entries already listed, ordered by “viability robust z-score”, low to high.
{"gene": "LCE1E", "viability hit class": "no change", "caspase hit class": "no change", "viability robust z-score": -0.86, "caspase robust z-score": -0.48, "Call": "inactive"}
{"gene": "TOB1", "viability hit class": "no change", "caspase hit class": "no change", "viability robust z-score": -0.02, "caspase robust z-score": 4, "Call": "inactive"}

More records:
{"gene": "TAF5L", "viability hit class": "no change", "caspase hit class": "no change", "viability robust z-score": 0.26, "caspase robust z-score": -0.42, "Call": "inactive"}
{"gene": "OR8B8", "viability hit class": "no change", "caspase hit class": "no change", "viability robust z-score": -1.09, "caspase robust z-score": -0.62, "Call": "inactive"}
{"gene": "TEP1", "viability hit class": "no change", "caspase hit class": "no change", "viability robust z-score": -1.21, "caspase robust z-score": 2.93, "Call": "inactive"}
{"gene": "MYO3A", "viability hit class": "no change", "caspase hit class": "no change", "viability robust z-score": 0.06, "caspase robust z-score": 1.04, "Call": "inactive"}
{"gene": "NOC4L", "viability hit class": "no change", "caspase hit class": "no change", "viability robust z-score": -1.16, "caspase robust z-score": -0.53, "Call": "inactive"}
{"gene": "OR8G1", "viability hit class": "no change", "caspase hit class": "no change", "viability robust z-score": 0.18, "caspase robust z-score": 0.49, "Call": "inactive"}
{"gene": "TMC3", "viability hit class": "no change", "caspase hit class": "no change", "viability robust z-score": 0.27, "caspase robust z-score": -0.24, "Call": "inactive"}
{"gene": "SPRED3", "viability hit class": "no change", "caspase hit class": "CA1 (caspase activation)", "viability robust z-score": -2.7, "caspase robust z-score": 8.13, "Call": "active"}
{"gene": "GABRB2", "viability hit class": "RV2 (reduced viability)", "caspase hit class": "no change", "viability robust z-score": -3.12, "caspase robust z-score": 1.97, "Call": "active"}
{"gene": "OXCT2", "viability hit class": "no change", "caspase hit class": "no change", "viability robust z-score": 0.62, "caspase robust z-score": 1.4, "Call": "inactive"}
